Results published in the supplement of paper PMC8104966.
Some of the results follow. This data set is noisy: repeats of one test often differ as much as different tests do.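 U2OS cells expressing ACE2 were combined with U2OS cells expressing full-length spike, and imaging quantified fusion as the fraction of nuclei displaying both cell types' fluorescent markers. Non-toxic compounds with a fusion z-score under -3, i.e., over three standard deviations below the plate's DMSO wells, are called inhibitory hits.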

Tested on: U2OS ACE2 x SARS-CoV-2 spike co-culture
Assay: cell-cell fusion (fraction fused) z-score vs plate DMSO control; higher = more fusion
Details: 30 µM; 5 h; toxicity class: non-toxic, passed QC

Compound	cell-cell fusion (z-score)
CC1(C)S[C@@H]2[C@H](NC(=O)[C@H](N)c3ccc(O)cc3)C(=O)N2[C@H]1C(=O)O.O.O.O [Amoxicillin trihydrate]	inactive: 3
CC(C)C[C@H](NC(=O)[C@@H](O)[C@H](N)Cc1ccccc1)C(=O)O [Ubenimex (Bestatin)]	inactive: 1.36
CC(O)(P(=O)([O-])O)P(=O)([O-])O.[Na+].[Na+]	inactive: 1.5
Clc1ccc2c(c1)C(N1CCNCC1)=Nc1ccccc1O2	inactive: -0.228
Clc1ccc2c(c1)C(N1CCNCC1)=Nc1ccccc1O2 [Amoxapine]	inactive: 1.89
CN(C)C(=O)[C@H](O)[C@H](Cc1ccccc1)NC(=O)c1cc2cc(Cl)ccc2[nH]1	inactive: -1.09
N=C(N)N.O=C(O)O	inactive: 4.64
CCCC(=O)Nc1ncnc2c1ncn2C1O[C@@H]2COP(=O)(O)O[C@H]2[C@H]1OC(=O)CCC (stereo not given in full)	inactive: 1.48
Cc1cc(C(C#N)c2ccc(Cl)cc2)c(Cl)cc1NC(=O)c1cc(I)cc(I)c1O (stereo not given)	inactive: 2.05
COc1ccc2c(c1)c(CC(=O)O)c(C)n2C(=O)c1ccc(Cl)cc1 [Indomethacin]	inactive: 2.97
COc1ccc2c(c1)c(CC(=O)O)c(C)n2C(=O)c1ccc(Cl)cc1	inactive: 1.7
Cn1cnc2c(F)c(Nc3ccc(Br)cc3Cl)c(C(=O)NOCCO)cc21 [AZD6244 (Selumetinib)]	inactive: 0.995
Cc1ccc(N(CC2=NCCN2)c2cccc(O)c2)cc1.Cl	inactive: 1.68
CC(=O)Nc1ccc(C(=O)O)cc1	inactive: 0.733
CCOC(=O)[C@H](CCc1ccccc1)N[C@@H](C)C(=O)N1CCC[C@H]1C(=O)O.O=C(O)/C=C\C(=O)O [Enalapril Maleate]	inactive: 2.78
C[N+]1(C)C2CC(OC(=O)[C@H](CO)c3ccccc3)CC1C1OC12.[Br-] (single isomer, unassigned; (-)) [(-)-Scopolamine methyl bromide]	inactive: -2.73
CC(C)=CC1C(C(=O)OCc2cccc(Oc3ccccc3)c2)C1(C)C (stereo not given)	inactive: 2.44
CCCCCOc1ccc(-c2cc(-c3ccc(C(=O)N[C@H]4C[C@@H](O)[C@@H](O)NC(=O)[C@@H]5[C@@H](O)[C@@H](C)CN5C(=O)[C@H]([C@H](O)CC(N)=O)NC(=O)[C@H]([C@H](O)[C@@H](O)c5ccc(O)c(OS(=O)(=O)[O-])c5)NC(=O)[C@@H]5C[C@@H](O)CN5C(=O)[C@H]([C@@H](C)O)NC4=O)cc3)no2)cc1.[Na+] [Micafungin sodium]	active: -11.3
CC[C@H]1CN2CCC1C[C@@H]2[C@@H](O)c1ccnc2ccc(OC)cc12 (stereo not given in full)	inactive: 1.81
C[C@]12CCC(=O)C=C1CCC1C2[C@@H](O)C[C@@]2(C)C1CC[C@]2(O)C(=O)COC(=O)CCC(=O)O (stereo not given in full)	inactive: 1.2
O=C1CN2Cc3c(ccc(Cl)c3Cl)NC2=N1 [Anagrelide]	inactive: 2.82
O=C(CCCl)NCc1ccccc1	inactive: 1.66
COC(=O)C[C@H]1C(C)(C)[C@@H](OC(C)=O)[C@@H]2CC3=C4CC(=O)O[C@@H](c5ccoc5)[C@]4(C)CCC3[C@@]1(C)C2=O (stereo not given in full)	inactive: 2.45
O=C(O)CCCc1ccc(N(CCCl)CCCl)cc1	inactive: 1.02

Taken from above.
In cell-cell fusion (z-score), O=C(CCCl)NCc1ccccc1 is listed with inactive: 1.66
In cell-cell fusion (z-score), Cc1ccc(N(CC2=NCCN2)c2cccc(O)c2)cc1.Cl is listed with inactive: 1.68
In cell-cell fusion (z-score), C[N+]1(C)C2CC(OC(=O)[C@H](CO)c3ccccc3)CC1C1OC12.[Br-] (single isomer, unassigned; (-)) [(-)-Scopolamine methyl bromide] is listed with inactive: -2.73
In cell-cell fusion (z-score), CC(C)C[C@H](NC(=O)[C@@H](O)[C@H](N)Cc1ccccc1)C(=O)O [Ubenimex (Bestatin)] is listed with inactive: 1.36

Following part:

Compound	cell-cell fusion (z-score)
COC(=O)C1=CO[C@@H](O)[C@@H]2C(CO)=CC[C@H]12 [Genipin]	inactive: 3.7
CC(C)Cn1cnc2c(N)nc3ccccc3c21.Cl	inactive: 1.71
COc1ccc(-c2coc3cc(OC(C)=O)cc(OC(C)=O)c3c2=O)cc1	inactive: 1.99
NCC(CC(=O)O)c1ccc(Cl)cc1 (stereo not given) [Baclofen]	inactive: 2.66
O=C(O)CCCC[C@@H]1CCSS1 (racemic) [(±)-alpha-Lipoic Acid]	inactive: 1.58
Cc1onc(-c2c(Cl)cccc2Cl)c1C(=O)N[C@@H]1C(=O)N2[C@@H]1SC(C)(C)[C@@H]2C(=O)[O-].[Na+]	inactive: 2.57
CN(C)CC[C@H](CSc1ccccc1)Nc1ccc(S(=O)(=O)NC(=O)c2ccc(N3CCN(Cc4ccccc4-c4ccc(Cl)cc4)CC3)cc2)cc1[N+](=O)[O-]	inactive: 1.84
CCOC(=O)CC(SP(=S)(OC)OC)C(=O)OCC (stereo not given)	inactive: 3.27
CC(=O)Oc1ccc(Cl)c2cccnc12	inactive: 0.493
CCn1cc(C(=O)O)c(=O)c2ccc(C)nc21 [Nalidixic acid]	inactive: 2.17
CC(=O)N[C@@H](Cc1c[nH]c2ccccc12)C(=O)O	inactive: 1.82
Cc1cc(O)c(C)c(O)c1C(=O)O	inactive: 1.69
COc1ccc(CN(CCN(C)C)c2ccccn2)cc1.O=C(O)/C=C\C(=O)O [Pyrilamine maleate]	inactive: 2.24
CC1(C)S[C@@H]2[C@H](NC(=O)C(C(=O)[O-])c3ccccc3)C(=O)N2[C@H]1C(=O)[O-].[Na+].[Na+] (stereo not given in full) [Carbenicillin disodium]	inactive: 2.78
OC(c1ccccc1)(c1ccccc1)C12CC[N+](CCOCc3ccccc3)(CC1)CC2.[Br-] [Umeclidinium bromide]	inactive: 0.631
CNC(=O)c1cc(Oc2ccc(NC(=O)Nc3cc(C(C)(C)C)nn3-c3ccc4ncccc4c3)c(F)c2)ccn1 [DCC-2036 (Rebastinib)]	inactive: 1.64
CC(=O)Nc1c(I)c(NC(C)=O)c(I)c(C(=O)O)c1I	inactive: 0.458
Cl.O=C(COc1ccc(Cl)cc1)N1CCN(Cc2ccc3c(c2)OCO3)CC1	inactive: 0.58
Br.CN1CCC[C@@H]1Cc1c[nH]c2ccc(CCS(=O)(=O)c3ccccc3)cc12 [Eletriptan hydrobromide]	inactive: -1.14
COc1ccccc1Oc1c(NS(=O)(=O)c2ccc(C(C)(C)C)cc2)nc(-c2ncccn2)nc1OCCO [Bosentan]	inactive: 2.3
C[C@H]1O[C@@H](O[C@H]2[C@@H](O)C[C@H](O[C@H]3[C@@H](O)C[C@H](O[C@H]4CC[C@]5(C)C6C[C@@H](O)[C@]7(C)[C@@H](C8=CC(=O)OC8)CC[C@]7(O)C6CC[C@@H]5C4)O[C@@H]3C)O[C@@H]2C)C[C@H](O)[C@@H]1O (stereo not given in full)	inactive: -1.29
NC(=O)c1cc(N2CC2)c([N+](=O)[O-])cc1[N+](=O)[O-]	inactive: 0.735
NC/C=C/C(=O)O [(E)-4-amino-2-butenoic acid]	inactive: -0.301
Nc1nc(NC2CC2)c2ncn([C@H]3C=C[C@@H](CO)C3)c2n1 [Abacavir]	inactive: 1.9

Compound	cell-cell fusion (z-score)
Cc1c(Cl)cccc1Nc1ccccc1C(=O)O	inactive: -0.585
CCCNC(=O)NS(=O)(=O)c1ccc(Cl)cc1 [Chlorpropamide]	inactive: 1.88
COc1cc2c(CCNC(C)=O)c[nH]c2cc1O [6-Hydroxymelatonin]	inactive: 2.04
CCn1c(-c2nonc2N)nc2c(C#CC(C)(C)O)ncc(OC[C@H]3CCCNC3)c21	inactive: 3.49
NCCCCCC(=O)O [6-Aminocaproic acid]	inactive: 1.68
COc1c2occc2cc2ccc(=O)oc12 [8-Methoxypsoralen]	inactive: 2.51
O=C(Nc1ncc([N+](=O)[O-])s1)c1ccccc1O [Tizoxanide]	inactive: 1.37
COc1cc(C)c2c(=O)cc(-c3ccccc3)oc2c1	inactive: 1.42
Cl.Cl.Cl.NCCCCNCCCN [Spermidine trihydrochloride]	inactive: 3
Cl.Cl.Cl.NCCCCNCCCN	inactive: 1.53
C=C(C)[C@H]1COc2cc3oc(=O)ccc3cc2O1	inactive: 2.29
N[C@H](C(=O)O)[C@H]1C[C@@H]1C(=O)O [(2S,1'S,2'S)-2-(carboxycyclopropyl)glycine]	inactive: 3.42
Nc1ccccc1NC(=O)c1ccc(CNc2nccc(-c3cccnc3)n2)cc1 [Mocetinostat (MGCD0103)]	inactive: 1.23
Cl.NCC(O)c1ccc(O)cc1 (racemic) [(±)-Octopamine hydrochloride]	inactive: 1.91
Cn1cc(C2=C(c3ccc(Cl)cc3Cl)C(=O)NC2=O)c2ccccc21	inactive: 3.59
COc1ccc(CCN2CCN(CCCc3ccccc3)CC2)cc1OC.Cl.Cl	inactive: 0.75
CC=CC1=C(C(=O)O)N2C(=O)[C@@H](NC(=O)[C@H](N)c3ccc(O)cc3)[C@H]2SC1.O [Cefprozil hydrate]	inactive: 1.16
O=c1[nH]c2ccccc2n1C1CCN(CCCC(c2ccc(F)cc2)c2ccc(F)cc2)CC1 [Pimozide]	active: -9.25
C=C(C)[C@@H]1CC[C@]2(C)CC[C@]3(C)[C@@H](CCC4[C@@]5(C)CC[C@H](O)C(C)(C)C5CC[C@]43C)C12 (stereo not given in full)	inactive: 1.26
N[C@@H](Cc1cc(I)c(Oc2ccc(O)c(I)c2)c(I)c1)C(=O)[O-].[Na+] [LIOTHYRONINE (L- isomer) SODIUM]	inactive: -2.51
CN(C)C(=N)NC(=N)N.Cl [Metformin hydrochloride]	inactive: 2.67
CN(C)C(=N)NC(=N)N.Cl	inactive: 1.8
